From PMC6925134 come the findings set out here.

By UniProt entry, the sequences of proteins in these tests, tags left out.
UniProt P08670: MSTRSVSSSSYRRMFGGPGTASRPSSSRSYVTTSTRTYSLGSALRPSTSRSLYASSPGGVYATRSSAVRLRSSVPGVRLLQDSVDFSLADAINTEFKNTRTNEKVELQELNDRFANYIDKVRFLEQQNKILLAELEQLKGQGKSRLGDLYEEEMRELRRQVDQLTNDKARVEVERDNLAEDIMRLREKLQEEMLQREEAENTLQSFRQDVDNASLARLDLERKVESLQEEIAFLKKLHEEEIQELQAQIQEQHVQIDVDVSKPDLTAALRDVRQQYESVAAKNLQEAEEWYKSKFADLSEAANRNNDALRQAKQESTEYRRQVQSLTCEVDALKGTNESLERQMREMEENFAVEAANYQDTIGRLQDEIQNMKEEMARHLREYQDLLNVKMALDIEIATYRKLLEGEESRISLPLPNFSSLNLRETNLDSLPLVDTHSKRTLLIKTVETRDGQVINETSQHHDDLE

The target in this assay is T1, RNF208 overexpressed in TNBC cells (crosslinking assay) (human) (UniProt Q9H0X6).
T1 sequence: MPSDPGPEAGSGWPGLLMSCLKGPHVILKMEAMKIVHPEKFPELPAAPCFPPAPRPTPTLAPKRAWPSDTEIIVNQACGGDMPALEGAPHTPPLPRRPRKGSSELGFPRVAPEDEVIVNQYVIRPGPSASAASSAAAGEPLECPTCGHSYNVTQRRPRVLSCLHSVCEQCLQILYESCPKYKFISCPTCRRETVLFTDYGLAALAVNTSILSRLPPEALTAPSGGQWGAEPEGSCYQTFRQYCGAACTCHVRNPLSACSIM
Briefly: cross-linking + affinity purification with mass spectrometry; RNF208-overexpressing cells fixed in 1% formaldehyde in PBS; eluted proteins separated by SDS-PAGE, Coomassie stained, analysed by mass spectrometry.

Results are given in words; binding and its absence hold for the method and conditions named. In cells and extracts the contact can be indirect. Here binding means that the protein was enriched with, or labelled near, the bait; the list need not be complete.

As for “Vimentin, endogenous in TNBC cells (from UniProt P08670 1-466)”, the binding entry is given as “binds”.
